{"source": "ChEMBL document CHEMBL3885861", "about": "“Open TG-GATES”", "key": {"Rattus norvegicus [1]": {"species_on_record": "Rattus norvegicus", "assay": "Open TG-GATES - Regimen: Daily Repeat", "type": "toxicity, organism-based, Sprague-Dawley", "design": "regimen Daily Repeat, gender Male, age 6 weeks", "conditions": "in vivo, po, route gavage"}, "Rattus norvegicus [2]": {"species_on_record": "Rattus norvegicus", "assay": "Open TG-GATES - Regimen: Single", "type": "toxicity, organism-based, Sprague-Dawley", "design": "regimen Single, gender Male, age 6 weeks", "conditions": "in vivo, po, route gavage"}, "[3]": {"conditions": "300 mg/kg, […], tissue Blood, dose level Middle, time 28 day"}, "[4]": {"conditions": "300 mg/kg, 6 h, tissue Blood, dose level Middle"}, "[5]": {"conditions": "300 mg/kg, 24 h, tissue Blood, dose level Middle"}}}
{"smiles": "O=C(O)c1cn(C2CC2)c2cc(N3CCNCC3)c(F)cc2c1=O", "note": "[CIPROFLOXACIN]", "values": [{"measurement": "LIVER", "setting": "Rattus norvegicus [1]; 0 mg/kg, […], tissue Liver, dose level Control, time 28 day", "value": 14.6, "unit": "g"}, {"measurement": "Ca", "setting": "Rattus norvegicus [1]; 0 mg/kg, […], tissue Plasma, dose level Control, time 14 day", "value": 11.1, "unit": "mg/dL"}, {"measurement": "Ca", "setting": "Rattus norvegicus [1]; 100 mg/kg, 72 h, tissue Plasma, dose level Low, time 3 day", "value": 11.1, "unit": "mg/dL"}, {"measurement": "MCHC", "setting": "Rattus norvegicus [1]; 300 mg/kg, 72 h, tissue Blood, dose level Middle, time 3 day", "value": 33.7, "unit": "%"}, {"measurement": "Ca", "setting": "Rattus norvegicus [1]; 300 mg/kg, 72 h, tissue Plasma, dose level Middle, time 3 day", "value": 11.1, "unit": "mg/dL"}, {"measurement": "Hb", "setting": "Rattus norvegicus [1]; [3]", "value": 14.6, "unit": "g/dL"}, {"measurement": "PT", "setting": "Rattus norvegicus [1]; [3]", "value": 11.1, "unit": "s"}, {"measurement": "Ca", "setting": "Rattus norvegicus [1]; 300 mg/kg, […], tissue Plasma, dose level Middle, time 28 day", "value": 11.1, "unit": "mg/dL"}, {"measurement": "PT", "setting": "Rattus norvegicus [1]; 1000 mg/kg, […], tissue Blood, dose level High, time 28 day", "value": 11.1, "unit": "s"}, {"measurement": "ALT", "setting": "Rattus norvegicus [1]; 1000 mg/kg, […], tissue Plasma, dose level High, time 7 day", "value": 41.2, "unit": "IU/L"}, {"measurement": "Ca", "setting": "Rattus norvegicus [1]; 1000 mg/kg, […], tissue Plasma, dose level High, time 14 day", "value": 11.1, "unit": "mg/dL"}, {"measurement": "Neu", "setting": "Rattus norvegicus [2]; 0 mg/kg, 3 h, tissue Blood, dose level Control", "value": 14.6, "unit": "%"}, {"measurement": "Ca", "setting": "Rattus norvegicus [2]; 0 mg/kg, 6 h, tissue Plasma, dose level Control", "value": 11.1, "unit": "mg/dL"}, {"measurement": "Ht", "setting": "Rattus norvegicus [2]; 100 mg/kg, 9 h, tissue Blood, dose level Low", "value": 41.2, "unit": "%"}, {"measurement": "TG", "setting": "Rattus norvegicus [2]; 100 mg/kg, 24 h, tissue Plasma, dose level Low", "value": 50.8, "unit": "mg/dL"}, {"measurement": "Ht", "setting": "Rattus norvegicus [2]; [4]", "value": 38.9, "unit": "%"}, {"measurement": "Lym", "setting": "Rattus norvegicus [2]; [4]", "value": 72.6, "unit": "%"}, {"measurement": "Ca", "setting": "Rattus norvegicus [2]; 300 mg/kg, 9 h, tissue Plasma, dose level Middle", "value": 11.1, "unit": "mg/dL"}, {"measurement": "Ht", "setting": "Rattus norvegicus [2]; [5]", "value": 38.9, "unit": "%"}, {"measurement": "Neu", "setting": "Rattus norvegicus [2]; [5]", "value": 14.6, "unit": "%"}, {"measurement": "Ht", "setting": "Rattus norvegicus [2]; 1000 mg/kg, 3 h, tissue Blood, dose level High", "value": 38.9, "unit": "%"}, {"measurement": "Ca", "setting": "Rattus norvegicus [2]; 1000 mg/kg, 3 h, tissue Plasma, dose level High", "value": 11.1, "unit": "mg/dL"}]}
